Our source for the binding values is article doi:10.1101/2025.03.13.643120.

The chains behind the UniProt entries cited, without tags or fusion partners. Residues count along the entry.
UniProt O43157, residues 1511-2135: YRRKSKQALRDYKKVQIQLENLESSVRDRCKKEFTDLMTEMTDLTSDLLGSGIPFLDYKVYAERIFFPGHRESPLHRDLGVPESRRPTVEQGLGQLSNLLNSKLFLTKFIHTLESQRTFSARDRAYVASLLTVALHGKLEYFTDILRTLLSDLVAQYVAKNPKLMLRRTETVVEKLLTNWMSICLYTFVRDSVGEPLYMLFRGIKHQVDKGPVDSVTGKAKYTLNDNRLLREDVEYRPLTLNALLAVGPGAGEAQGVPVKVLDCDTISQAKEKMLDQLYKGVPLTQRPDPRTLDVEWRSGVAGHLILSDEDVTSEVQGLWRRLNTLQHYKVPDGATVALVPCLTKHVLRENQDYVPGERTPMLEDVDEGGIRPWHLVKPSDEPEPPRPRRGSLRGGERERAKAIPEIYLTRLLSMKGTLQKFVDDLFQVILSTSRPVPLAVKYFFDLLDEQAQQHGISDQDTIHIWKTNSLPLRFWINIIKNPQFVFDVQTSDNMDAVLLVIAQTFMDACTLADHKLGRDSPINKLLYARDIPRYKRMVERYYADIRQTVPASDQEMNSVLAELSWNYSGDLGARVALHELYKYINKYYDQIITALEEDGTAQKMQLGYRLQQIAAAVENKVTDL
UniProt P61224: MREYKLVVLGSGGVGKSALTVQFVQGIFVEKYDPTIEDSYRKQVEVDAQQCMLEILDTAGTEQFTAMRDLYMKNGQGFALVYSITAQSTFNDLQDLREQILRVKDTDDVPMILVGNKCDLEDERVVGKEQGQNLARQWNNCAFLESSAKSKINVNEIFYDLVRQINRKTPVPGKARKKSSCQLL

These are yes or no findings as the source states them, for the method shown. Some binding calls cover weakened binding; strength is not graded here.

In assay [1] the target is Plexin-B1 intracellular region (ICR) (UniProt O43157). The assay is described as follows: HDX-MS; plexin-B1 ICR alone against ternary mixtures plexin:Rac1.Q61L:Rap1b (~1:14.5:8.3) or plexin:Rnd1:Rap1b (~1:21.4:8.3); same buffers; exchange 10 sec, 25 min, 180 min; Acquity UPLC M-class with HDX manager; about 40% of plexin expected bound; both purified.
Assay [2] shares this target. The assay is described as follows: HDX-MS; plexin-B1 ICR alone against binary mixtures with Rac1.Q61L or Rnd1 (no Rap1b); labeling buffer 20 mM Tris.HCl pH 7.1 (pD 7.5), 150 mM NaCl, 5% glycerol, 2 mM TCEP, 0.005% Tween-20, 4 mM MgCl2 in D2O; exchange 10 sec, 2.5 min, 25 min, 180 min; legend says pH 7.0, 25 °C; pepsin digestion; Synapt G2-Si; both purified.

As for Rap1b (from UniProt P61224 1-184), the binding entry in assay [1] is recorded as “binds”.

B1: Rnd1 (protein, UniProt Q92730 1-232)
chain: MKERRAPQPVVARCKLVLVGDVQCGKTAMLQVLAKDCYPETYVPTVFENYTACLETEEQRVELSLWDTSGSPYYDNVRPLCYSDSDAVLLCFDISRPETVDSALKKWRTEILDYCPSTRVLLIGCKTDLRTDLSTLMELSHQKQAPISYEQGCAIAKQLGAEIYLEGSAFTSEKSIHSIFRTASMLCLNKPSPLPQKSPVRSLSKRLLHLPSRSELISSTFKKEKAKSCSIM
Take B1: the binding entry in assay [2] is recorded as “binds”.
